According to the supplement of paper PMC12282887:
These are raw signals, not scaled to a control.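 The top concentration was set near the MIC for antimicrobials, at 500 µM for most other compounds, and up to 1 mM for known inducer-like compounds. Deletion strains started from a tenfold smaller inoculum, and wells growing below 10% of the overall median were treated as non-growing.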 Where a SMILES comes first, the peptide text is derived from it. Bridges are numbered along the chain shown (N, C = ends). [ ]: non-standard residue; d: D form. The star is where a group is joined. Ileψ(thiazoline)Cys = CC[C@H](C)[C@H](N)C1=N[C@H](C(=O)*)CS1; dOrn = NCCC[C@@H](N)C(=O)O

System: Escherichia coli BW25113
Experiment: growth (OD600 area under curve, 8 h) (OD600 x h); higher = more growth
Method: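 E. coli BW25113 reporter strains (wild type, ΔmarA, ΔsoxS, Δrob, each carrying one of 8 lux reporter plasmids) were grown in 40 µl LB in 384-well plates at 37°C, 800 rpm, with each compound at 4 two-fold concentrations, in biological duplicates. Growth is the baseline-corrected OD600 area under the curve over 8 h (0-8 h WT, 1-9 h deletion strains).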

CC[C@H](C)[C@H](N)C1=N[C@H](C(=O)N[C@@H](CC(C)C)C(=O)N[C@H](CCC(=O)O)C(=O)N[C@H](C(=O)N[C@H]2CCCCNC(=O)[C@H](CC(N)=O)NC(=O)[C@@H](CC(=O)O)NC(=O)[C@H](Cc3cnc[nH]3)NC(=O)[C@@H](Cc3ccccc3)NC(=O)[C@H]([C@@H](C)CC)NC(=O)[C@@H](CCCN)NC2=O)[C@@H](C)CC)CS1 [Bacitracin] ({Ileψ(thiazoline)Cys}-L[dE]IK[dOrn]I[dF]H[dD]N; lactam 4-C)
growth
Details | reporter plasmid: EVC | reporter plasmid: acrABp | reporter plasmid: marRABp | reporter plasmid: micFp | reporter plasmid: ompFp | reporter plasmid: robp | reporter plasmid: soxSp | reporter plasmid: tolCp
35.6 µg/ml, genetic background: wild type | 3.13 | 2.89 | 3.08 | 3.43 | 2.98 | 3.18 | 3.32 | 3.28
35.6 µg/ml, genetic background: ΔmarA | 3.68 | 4.19 | 3.47 | 3.76 | 3.51 | 3.73 | 3.52 | 3.44
35.6 µg/ml, genetic background: Δrob | 3.08 | 2.645 | 3.2 | 3.23 | 2.75 | 2.46 | 3.23 | 3.22
35.6 µg/ml, genetic background: ΔsoxS | 3.51 | 3.31 | 3.08 | 3.13 | 3.33 | 2.95 | 3.31 | 3.51
71.1 µg/ml, genetic background: wild type | 2.89 | 3.04 | 3.02 | 3.19 | 2.78 | 2.89 | 3.19 | 3.11
71.1 µg/ml, genetic background: ΔmarA | 3.45 | 4.44 | 3.7 | 3.6 | 3.54 | 3.6 | 3.29 | 3.12
71.1 µg/ml, genetic background: Δrob | 2.77 | 2.68 | 3.02 | 3.1 | 2.55 | 2.36 | 2.84 | 2.94
71.1 µg/ml, genetic background: ΔsoxS | 3.32 | 3.01 | 3.03 | 3.02 | 3.11 | 2.85 | 3.3 | 3.29
142.3 µg/ml, genetic background: wild type | 2.57 | 3.3 | 3.14 | 2.99 | 3.12 | 3.19 | 2.79 | 2.83
142.3 µg/ml, genetic background: ΔmarA | 3.19 | 4.19 | 3.89 | 3.33 | 3.73 | 3.9 | 3.08 | 2.97
142.3 µg/ml, genetic background: Δrob | 2.77 | 3.01 | 3.3 | 2.83 | 2.54 | 2.65 | 2.68 | 2.79
142.3 µg/ml, genetic background: ΔsoxS | 3.08 | 3.22 | 3.19 | 2.726 | 2.993 | 3.21 | 3.14 | 3.14
284.5 µg/ml, genetic background: wild type | 2.04 | 2.352 | 2.05 | 1.97 | 0.547 | 1.86 | 2.02 | 2.113
284.5 µg/ml, genetic background: ΔmarA | 2.3 | 2.81 | 2.24 | 2.3 | 2.03 | 2.83 | 1.93 | 2.25
284.5 µg/ml, genetic background: Δrob | 1.81 | 1.83 | 1.92 | 1.97 | 1.22 | 1.01 | 1.9 | 2
284.5 µg/ml, genetic background: ΔsoxS | 2.22 | 1.8 | 1.73 | 1.89 | 1.62 | 1.46 | 0.298 | 2.13

CCN1CCN(C(=O)N[C@@H](C(=O)N[C@@H]2C(=O)N3[C@@H]2SC(C)(C)[C@@H]3C(=O)O)c2ccccc2)C(=O)C1=O [Piperacillin]
growth
Details | reporter plasmid: EVC | reporter plasmid: acrABp | reporter plasmid: marRABp | reporter plasmid: micFp | reporter plasmid: ompFp | reporter plasmid: robp | reporter plasmid: soxSp | reporter plasmid: tolCp
0.034 µg/ml, genetic background: wild type | 3.234 | 3.26 | 3.39 | 3.16 | 3.35 | 3.51 | 3.15 | 3.269
0.034 µg/ml, genetic background: ΔmarA | 3.18 | 4.24 | 3.83 | 3.46 | 3.83 | 4 | 3.09 | 3.14
0.034 µg/ml, genetic background: Δrob | 3.07 | 2.99 | 3.47 | 3.31 | 2.9 | 2.73 | 2.997 | 3.24
0.034 µg/ml, genetic background: ΔsoxS | 3.36 | 3.47 | 3.32 | 3.04 | 3.15 | 3.45 | 3.28 | 3.39
0.067 µg/ml, genetic background: wild type | 3.126 | 3.22 | 3.36 | 3.15 | 3.3 | 3.457 | 3.06 | 3.28
0.067 µg/ml, genetic background: ΔmarA | 3.1 | 4.28 | 3.99 | 3.36 | 3.85 | 4.13 | 3.11 | 3.13
0.067 µg/ml, genetic background: Δrob | 2.89 | 3.1 | 3.59 | 3.3 | 2.92 | 2.78 | 2.74 | 3.22
0.067 µg/ml, genetic background: ΔsoxS | 3.111 | 3.35 | 3.35 | 2.79 | 3.14 | 3.19 | 3.1 | 3.24
0.13 µg/ml, genetic background: wild type | 3.25 | 3.34 | 3.36 | 3.15 | 3.44 | 3.59 | 3.14 | 3.24
0.13 µg/ml, genetic background: ΔmarA | 3.34 | 4.25 | 3.8 | 3.31 | 3.73 | 4.18 | 3.18 | 3.21
0.13 µg/ml, genetic background: Δrob | 3.34 | 3.33 | 3.72 | 3.38 | 2.96 | 2.73 | 3.026 | 3.43
0.13 µg/ml, genetic background: ΔsoxS | 3.48 | 3.68 | 3.51 | 3.2 | 3.33 | 3.49 | 3.36 | 3.3807
0.27 µg/ml, genetic background: wild type | 3.01 | 3.097 | 3.04 | 2.99 | 2.96 | 2.81 | 2.88 | 3.17
0.27 µg/ml, genetic background: ΔmarA | 3.31 | 3.13 | 3.04 | 3.25 | 2.62 | 3.47 | 3.05 | 3.12
0.27 µg/ml, genetic background: Δrob | 2.98 | 2.81 | 3.35 | 3.01 | 2.003 | 2.29 | 2.82 | 3.21
0.27 µg/ml, genetic background: ΔsoxS | 3.03 | 3.09 | 3.02 | 2.746 | 2.4 | 2.77 | 2.9 | 3.24

Cn1c(=O)c2c(ncn2C)n(C)c1=O [Caffeine]
growth
Details | reporter plasmid: EVC | reporter plasmid: acrABp | reporter plasmid: marRABp | reporter plasmid: micFp | reporter plasmid: ompFp | reporter plasmid: robp | reporter plasmid: soxSp | reporter plasmid: tolCp
24.3 µg/ml, genetic background: wild type | 2.75 | 3.1 | 3.32 | 3.14 | 2.88 | 3.167 | 2.88 | 3.21
24.3 µg/ml, genetic background: ΔmarA | 3.23 | 4.37 | 3.8 | 3.38 | 3.71 | 4.32 | 2.82 | 2.83
24.3 µg/ml, genetic background: Δrob | 3.04 | 2.97 | 3.39 | 3.09 | 2.65 | 2.84 | 2.93 | 3
24.3 µg/ml, genetic background: ΔsoxS | 3.19 | 3.01 | 3.12 | 2.61 | 3.18 | 3.18 | 3.32 | 3.17
48.5 µg/ml, genetic background: wild type | 2.73 | 3.09 | 3.316 | 3.228 | 3 | 3.36 | 3.01 | 3.25
48.5 µg/ml, genetic background: ΔmarA | 3.1 | 4.25 | 3.93 | 3.24 | 3.53 | 4.08 | 2.72 | 2.74
48.5 µg/ml, genetic background: Δrob | 2.79 | 2.79 | 3.36 | 3.09 | 2.73 | 2.75 | 2.78 | 2.85
48.5 µg/ml, genetic background: ΔsoxS | 3.14 | 2.91 | 3.07 | 2.54 | 3.182 | 3.13 | 3.11 | 3.12
97.1 µg/ml, genetic background: wild type | 2.44 | 2.9 | 3.22 | 2.88 | 3.02 | 3.212 | 2.77 | 2.81
97.1 µg/ml, genetic background: ΔmarA | 3.06 | 3.79 | 3.37 | 3.03 | 3.33 | 3.77 | 2.48 | 2.67
97.1 µg/ml, genetic background: Δrob | 2.68 | 2.79 | 3.3 | 2.72 | 2.76 | 2.8 | 2.29 | 2.65
97.1 µg/ml, genetic background: ΔsoxS | 2.86 | 2.73 | 3.03 | 2.42 | 3.04 | 3.27 | 3.02 | 2.63
194.2 µg/ml, genetic background: wild type | 2.26 | 2.59 | 2.73 | 2.4 | 2.46 | 2.9 | 2.48 | 2.64
194.2 µg/ml, genetic background: ΔmarA | 2.89 | 3.64 | 3.03 | 2.61 | 3.02 | 3.24 | 2 | 2.3
194.2 µg/ml, genetic background: Δrob | 2.47 | 2.31 | 2.93 | 2.62 | 2.41 | 2.25 | 2.35 | 2.62
194.2 µg/ml, genetic background: ΔsoxS | 2.8 | 2.3 | 2.53 | 1.92 | 2.62 | 2.58 | 2.34 | 2.79

C[C@@H](O)[C@H]1C(=O)N2C(C(=O)O)=C(S[C@@H]3CN[C@H](C(=O)N(C)C)C3)[C@H](C)[C@H]12 [Meropenem]
growth
Details | reporter plasmid: EVC | reporter plasmid: acrABp | reporter plasmid: marRABp | reporter plasmid: micFp | reporter plasmid: ompFp | reporter plasmid: robp | reporter plasmid: soxSp | reporter plasmid: tolCp
0.011 µg/ml, genetic background: wild type | 2.92 | 3.28 | 3.419 | 3.13 | 3.27 | 3.19 | 2.9 | 3.12
0.011 µg/ml, genetic background: ΔmarA | 3.33 | 4.35 | 3.86 | 3.05 | 3.74 | 4.01 | 2.96 | 3.06
0.011 µg/ml, genetic background: Δrob | 2.89 | 3.77 | 3.62 | 3.31 | 2.75 | 3.06 | 3.12 | 3.3
0.011 µg/ml, genetic background: ΔsoxS | 3.12 | 3.16 | 3.43 | 2.77 | 3.3 | 3.71 | 3.24 | 3.11
0.022 µg/ml, genetic background: wild type | 2.712 | 2.74 | 2.82 | 2.64 | 2.69 | 2.24 | 1.73 | 2.66
0.022 µg/ml, genetic background: ΔmarA | 2.9 | 3.48 | 3.29 | 2.99 | 3.21 | 3.4 | 2.63 | 2.65
0.022 µg/ml, genetic background: Δrob | 2.53 | 2.86 | 3.04 | 2.97 | 2.26 | 2.8 | 2.44 | 3.14
0.022 µg/ml, genetic background: ΔsoxS | 2.94 | 3.07 | 2.66 | 2.62 | 2.82 | 3.03 | 2.79 | 2.71
0.044 µg/ml, genetic background: wild type | 1.43 | 0.916 | 0.702 | 0.648 | 0.555 | 0.217 | 0.178 | 0.93
0.044 µg/ml, genetic background: ΔmarA | 0.967 | 0.885 | 0.509 | 2.02 | 1.97 | 1.19 | 0.254 | 0.523
0.044 µg/ml, genetic background: Δrob | 0.798 | 0.561 | 0.685 | 0.67 | 0.362 | 0.694 | 0.313 | 1.07
0.044 µg/ml, genetic background: ΔsoxS | 1.86 | 1.76 | 1.28 | 2.24 | 2.32 | 1.98 | 2.05 | 1.48
0.088 µg/ml, genetic background: wild type | -0.0481 | -0.456 | 0.0867 | 0.0349 | 0.0106 | 0.0556 | 0.0618 | 0.12
0.088 µg/ml, genetic background: ΔmarA | -0.0251 | -0.0383 | 0.0209 | -0.0509 | -0.0774 | -0.032 | -0.0187 | -0.116
0.088 µg/ml, genetic background: Δrob | -0.126 | 0.025 | -0.013 | -0.0418 | -0.0297 | 0.0239 | -0.00892 | 0.00691
0.088 µg/ml, genetic background: ΔsoxS | -0.0187 | 0.0101 | 0.109 | -0.0294 | 0.0543 | -0.0435 | -0.00319 | -0.0173
